Molecules are shown by their SMILES. The list shows only some results of the screen, not a fair sample: it is rich in T/C values a quarter to a half above the control, in often repeated tests (any T/C) and in doses without a T/C. Other doses and runs of a compound stand elsewhere. T/C gives the treated animals as a percentage of the vehicle group. Schedules are NCI's codes, read here as Q, the interval in days (D) or hours (H), X, the number of doses. Some T/C values carry the count of animals alive at the toxicity check (mostly the fifth day); where none is given, no animal had died by that day. Some doses have a count of surviving animals in place of a T/C: the source files T/C as zero there, which appears to mark a toxic dose or a test without result, not a measured value. Counts of survivors are from the toxicity check (mostly the fifth day) where no day follows; animals may have died later. Some entries were tested several times; the values are given in rising order. Residues, ends and D or L forms follow the SMILES beside them. *: point of attachment. Trt = c1ccc(C(c2ccccc2)(c2ccccc2)*)cc1; Cbz = O=C(OCc1ccccc1)*

Results on 22 compounds are retold here after PubChem BioAssay AID220 (DTP/NCI, 2004).

This test has as its system CD8F1 mice, subcutaneous mammary adenocarcinoma, T/C%. The test can be described thus: NCI In Vivo Anticancer Drug Screen. Data for tumor model Mammary Adenocarcinoma CD8F1 (subcutaneous) in CD8F1. To be noted: higher T/C = larger tumour. The method in brief:
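Mice carrying transplanted tumors received test compound, and survival or tumor size was recorded. Each value is the treated-group measurement divided by the corresponding measurement in vehicle-dosed controls.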

[1] abbreviates: T/C endpoint: median tumor weight change, dose: 125.0 mg/kg/injection, schedule: Q01DX001 (ip), vehicle: saline with Tween-80, evaluated on day 29.
[2] abbreviates: T/C endpoint: median tumor weight change, dose: 250.0 mg/kg/injection, schedule: Q01DX001 (ip), vehicle: saline.
[3] abbreviates: T/C endpoint: median tumor weight change, dose: 250.0 mg/kg/injection, schedule: Q01DX001 (ip), vehicle: suspension in saline.
Where [4] appears, read: T/C endpoint: median tumor weight change, dose: 500.0 mg/kg/injection, schedule: Q01DX001 (ip), vehicle: saline with Tween-80.
Where [5] appears, read: T/C endpoint: median tumor weight change, dose: 2000.0 mg/kg/injection, schedule: Q01DX001 (ip), vehicle: suspension in saline.

For the compound `C[C@]12CC[C@H](O)CC1=CC[C@@H]1[C@@H]2CC[C@]2(C)C(=O)CC[C@@H]12`, the T/C under setting [1] is 144 % of control.
As for `Nc1ccccc1N`, under “T/C endpoint: median tumor weight (est.), dose: 50.0 mg/kg/injection, schedule: Q07DX005 (ip), vehicle: Klucel (hydroxypropylcellulose) (HPC), evaluated on day 30”, the T/C is 136 % of control [9 of 10 alive].
As for `N#C[C@H](OC1OC(COC2OC(CO)C(O)C(O)C2O)C(O)C(O)C1O)c1ccccc1` (some centres not stated), where the note is “T/C endpoint: median tumor weight (est.), dose: 800.0 mg/kg/injection, schedule: Q07DX005 (ip), vehicle: suspension in saline, evaluated on day 30”, the T/C is 136 % of control.
Turning to `CN(N=O)C(N)=O`, the T/C (T/C endpoint: median tumor weight (est.), dose: 6.25 mg/kg/injection, schedule: Q07DX005 (ip), vehicle: suspension in saline, evaluated on day 30) is 136 % of control. Moreover, the survivor count reads like this: (T/C endpoint: median tumor weight (est.), dose: 100.0 mg/kg/injection, schedule: Q07DX005 (ip), vehicle: saline) 0 of 10 on day 30; (T/C endpoint: median tumor weight (est.), dose: 100.0 mg/kg/injection, schedule: Q07DX005 (ip), vehicle: suspension in saline) 0 of 10 on day 30; (T/C endpoint: median tumor weight change, dose: 250.0 mg/kg/injection, schedule: Q01DX001 (ip), vehicle: Klucel (hydroxypropylcellulose) (HPC)) 0 of 10 on day 35; under setting [2], 0 of 10 on day 30; under setting [3], 5 of 10 on day 28.
In the case of `CNc1n[n+](-c2ccccc2)no1`, the T/C is, setting by setting: (T/C endpoint: mean tumor weight, dose: 6.25 mg/kg/injection, schedule: Q07DX006 (ip), vehicle: saline, evaluated on day 41) 133 % of control; (T/C endpoint: median tumor weight (est.), dose: 3.12 mg/kg/injection, schedule: Q07DX005 (ip), vehicle: saline, evaluated on day 30) 135 % of control [9 of 10 alive].
Regarding `CCOC(=O)Nc1cc2c(c(N)n1)N=C(CN(C)c1ccccc1)CN2`, the survivor count reads like this: (T/C endpoint: median tumor weight (est.), dose: 50.0 mg/kg/injection, schedule: Q07DX005 (ip), vehicle: Klucel (hydroxypropylcellulose) (HPC)) 1 of 10 on day 30; (T/C endpoint: median tumor weight (est.), dose: 100.0 mg/kg/injection, schedule: Q07DX005 (ip), vehicle: Klucel (hydroxypropylcellulose) (HPC)) 0 of 10 on day 30 and 1 of 10 on day 30; (T/C endpoint: median tumor weight (est.), dose: 200.0 mg/kg/injection, schedule: Q07DX005 (ip), vehicle: Klucel (hydroxypropylcellulose) (HPC)) 0 of 10 on day 30; (T/C endpoint: median tumor weight (est.), dose: 400.0 mg/kg/injection, schedule: Q07DX005 (ip), vehicle: Klucel (hydroxypropylcellulose) (HPC)) 0 of 10 on day 30.
On to `C[Si](C)(C)O/C=C1\CCCCC1=O`, for which the T/C (T/C endpoint: median tumor weight change, dose: 250.0 mg/kg/injection, schedule: Q01DX001 (ip), vehicle: saline with Tween-80, evaluated on day 33) is 136 % of control. Further, the survivor count under setting [4] is 2 of 10 on day 28 and 6 of 10 on day 33; the survivor count (T/C endpoint: median tumor weight change, dose: 1000.0 mg/kg/injection, schedule: Q01DX001 (ip), vehicle: saline with Tween-80) was 0 of 10 on day 28 and 0 of 10 on day 33.
With `COC(=O)C(CSC(c1ccccc1)(c1ccccc1)c1ccccc1)NC(=O)C(CC(N)=O)NC(=O)OCc1ccccc1` (stereo not drawn) (Cbz-Asn-Cys(Trt)-OMe; configuration not given here), the T/C (T/C endpoint: median tumor weight change, dose: 500.0 mg/kg/injection, schedule: Q01DX001 (ip), vehicle: distilled water + Tween-80, evaluated on day 28) is 148 % of control.
Consider `NC(Cn1ccc(=O)c(O)c1)C(=O)O` (configuration not stated), for which the T/C (T/C endpoint: median tumor weight change, dose: 800.0 mg/kg/injection, schedule: Q01DX001 (ip), vehicle: saline, evaluated on day 30) is 125 % of control [9 of 10 alive on day 30].
Take `CC/C(=C(\c1ccccc1)c1ccc(OCCN(C)C)cc1)c1ccccc1`: the survivor count (T/C endpoint: median tumor weight change, dose: 400.0 mg/kg/injection, schedule: Q01DX001 (ip), vehicle: suspension in saline) is recorded as 5 of 10 on day 35.
Turning to `COc1ccc(S(=O)(=O)N=N/C=C2\C=CC=CN2O)cc1OC`, the T/C under setting [1] was 141 % of control.
Take `CC1CCC(NC(=O)N(CCCl)N=O)CC1` (configuration not stated): the survivor count is, setting by setting: (T/C endpoint: median tumor weight (est.), dose: 32.0 mg/kg/injection, schedule: Q07DX005 (ip), vehicle: Klucel (hydroxypropylcellulose) (HPC)) 4 of 10 on day 30; (T/C endpoint: median tumor weight (est.), dose: 64.0 mg/kg/injection, schedule: Q07DX005 (ip), vehicle: Klucel (hydroxypropylcellulose) (HPC)) 1 of 10 on day 30; (T/C endpoint: median tumor weight change, dose: 106.1 mg/kg/injection, schedule: Q01DX001 (ip), vehicle: Klucel (hydroxypropylcellulose) (HPC)) 0 of 10 on day 32; (T/C endpoint: median tumor weight change, dose: 128.0 mg/kg/injection, schedule: Q01DX001 (ip), vehicle: Klucel (hydroxypropylcellulose) (HPC)) 0 of 10 on day 32.
With `O=c1cc[nH]c(=O)o1`, the survivor count (T/C endpoint: mean tumor weight, dose: 75.0 mg/kg/injection, schedule: Q07DX005 (ip), vehicle: saline) is recorded as 6 of 10. In addition, the T/C (T/C endpoint: median tumor weight (est.), dose: 18.5 mg/kg/injection, schedule: Q07DX005 (ip), vehicle: saline, evaluated on day 30) was 141 % of control.
Turning to `Cc1cc(NCCCN(C)C)c2ccc3c(ccc4c(NCCCN(C)C)cc(C)nc43)c2n1`, the survivor count is 3 of 10 on day 33 (T/C endpoint: median tumor weight change, dose: 15.62 mg/kg/injection, schedule: Q01DX001 (ip), vehicle: saline); 1 of 10 on day 33 and 2 of 10 on day 31 (T/C endpoint: median tumor weight change, dose: 31.25 mg/kg/injection, schedule: Q01DX001 (ip), vehicle: saline); 0 of 10 on day 31 (T/C endpoint: median tumor weight change, dose: 62.5 mg/kg/injection, schedule: Q01DX001 (ip), vehicle: saline); 0 of 10 on day 31 (T/C endpoint: median tumor weight change, dose: 125.0 mg/kg/injection, schedule: Q01DX001 (ip), vehicle: saline); 0 of 10 on day 31 under setting [2]; 0 of 10 on day 31 (T/C endpoint: median tumor weight change, dose: 500.0 mg/kg/injection, schedule: Q01DX001 (ip), vehicle: saline).
Take `O=C1N(Cl)C(=O)C(c2ccc(Cl)cc2)(c2ccc(Cl)cc2)N1Cl`: the survivor count (T/C endpoint: median tumor weight change, dose: 400.0 mg/kg/injection, schedule: Q01DX001 (ip), vehicle: saline with Tween-80) is 1 of 10 on day 35 and the survivor count (T/C endpoint: median tumor weight change, dose: 800.0 mg/kg/injection, schedule: Q01DX001 (ip), vehicle: saline with Tween-80) was 0 of 9 on day 35.
On to `O=C(O)CSc1nc(-c2ccccc2)c(-c2ccccc2)n1-c1ccccn1`, for which the survivor count (T/C endpoint: median tumor weight (est.), dose: 200.0 mg/kg/injection, schedule: Q07DX005 (ip), vehicle: water) is 1 of 10 on day 30 and the survivor count (T/C endpoint: median tumor weight (est.), dose: 400.0 mg/kg/injection, schedule: Q07DX005 (ip), vehicle: water) is reported as 0 of 10 on day 30.
Turning to `Cc1cn(C2CC(F)C(CO)O2)c(=O)[nH]c1=O` (configuration not stated), under setting [5], the survivor count is recorded as 6 of 10 on day 29.
Consider `O=NN(CCCl)C(=O)NC1[C@H](O)CCC[C@@H]1O` (some centres not stated), for which the survivor count is 0 of 10 on day 35 (T/C endpoint: median tumor weight change, dose: 25.0 mg/kg/injection, schedule: Q01DX001 (ip), vehicle: saline); 0 of 10 on day 28 and 0 of 10 on day 35 (T/C endpoint: median tumor weight change, dose: 50.0 mg/kg/injection, schedule: Q01DX001 (ip), vehicle: saline); 0 of 10 on day 28 (T/C endpoint: median tumor weight change, dose: 100.0 mg/kg/injection, schedule: Q01DX001 (ip), vehicle: saline).
As for `O=C1NC(c2ccccc2)N=C2Oc3ccccc3C=C12` (configuration not stated), the T/C by setting is: (T/C endpoint: median tumor weight (est.), dose: 6.25 mg/kg/injection, schedule: Q07DX005 (ip), vehicle: saline with Tween-80, evaluated on day 30) 133 % of control; (T/C endpoint: median tumor weight (est.), dose: 12.5 mg/kg/injection, schedule: Q07DX005 (ip), vehicle: saline with Tween-80, evaluated on day 30) 146 % of control. Moreover, the survivor count (T/C endpoint: median tumor weight (est.), dose: 200.0 mg/kg/injection, schedule: Q07DX005 (ip), vehicle: saline with Tween-80) is recorded as 0 of 10 on day 30.
As for `CCNC(C)(C)C(SSS)c1ccco1` (configuration not stated), the survivor count under setting [4] is 6 of 10 on day 32.
Regarding `CCC(CC)COC(=O)c1ccccc1C(=O)OCC(CC)CC`, the T/C runs as follows: (T/C endpoint: median tumor weight (est.), dose: 50.0 mg/kg/injection, schedule: Q07DX005 (ip), vehicle: saline with Tween-80, evaluated on day 30) 132 % of control; (T/C endpoint: median tumor weight (est.), dose: 100.0 mg/kg/injection, schedule: Q07DX005 (ip), vehicle: saline with Tween-80, evaluated on day 30) 126 % of control.
As for `O=C1N(CC2CO2)CCN1CC1CO1` (configuration not stated), the survivor count is reported as 1 of 10 on day 29 under setting [3]; 0 of 10 on day 29 (T/C endpoint: median tumor weight change, dose: 500.0 mg/kg/injection, schedule: Q01DX001 (ip), vehicle: suspension in saline); 0 of 10 on day 29 (T/C endpoint: median tumor weight change, dose: 1000.0 mg/kg/injection, schedule: Q01DX001 (ip), vehicle: suspension in saline); 0 of 10 on day 29 under setting [5].
